Experimental data: PubChem BioAssay AID1224830 (NIAID, 2016)
This is an unselected part of about 18,000 reagents. Over the whole deposit, about 2,900 (16%) are marked active. 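Calls are made per well; low scores hint the gene aids the LPS response, high scores that it dampens it.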 A number with no mark means an inactive call. Repeated entries: four replicate wells of each siRNA pool.

Test: 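Regulators of TLR4 signalling towards TNF-alpha in macrophage-like cells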 (primary screen)
Cell system: human THP-1 monocytic leukaemia cells, TNF dual-luciferase reporter clone, PMA-differentiated to macrophage-like cells
Reagent: siRNA pool against human genes, 50 nM
Duration: LPS for 4 h, given about 3 days after siRNA transfection
Conditions: bacterial LPS (TLR4 ligand), 10 ng/ml
Read-out: 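Ratio of firefly to renilla light, scaled to the plate median and expressed as a robust z-score per replicate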
Scale: TNF reporter robust z-score: higher = stronger TNF reporter response to LPS
Hit rule: 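a well is active when its z-score exceeds 2.8 or falls below -1.5; control wells carry no call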

gene symbol | TNF reporter robust z-score
KCTD9 | -1.47
KCTD9 | -0.84
KCTD9 | -1.03
KCTD9 | -0.63
ERO1A | 2.22
ERO1A | 2.53
ERO1A | 3.61 (active)
ERO1A | 2.44
KRT34 | 1.52
KRT34 | 0.71
KRT34 | 3.49 (active)
KRT34 | 3.69 (active)
KLHL22 | -0.32
KLHL22 | 4.8 (active)
KLHL22 | 0.3
KLHL22 | 1.89
KLHDC3 | 0.06
KLHDC3 | 1.92
KLHDC3 | 1.16
KLHDC3 | 1.61
DAPL1 | 1.54
DAPL1 | 3.56 (active)
DAPL1 | 3.52 (active)
DAPL1 | 3.3 (active)
PPM1A | -0.28
PPM1A | -0.84
PPM1A | -0.5
PPM1A | 1.41
OR2T35 | -1.48
OR2T35 | -1.01
OR2T35 | -0.98
OR2T35 | -0.29
OR10A6 | 0.78
OR10A6 | 2.63
OR10A6 | 2.05
OR10A6 | 1.99
COL18A1 | -0.93
COL18A1 | -0.66
COL18A1 | -0.81
COL18A1 | 0.03
SUMO3 | -0.97
SUMO3 | -1.2
SUMO3 | -0.67
SUMO3 | -1.71 (active)
GRIPAP1 | 3.5 (active)
GRIPAP1 | 4.96 (active)
GRIPAP1 | 1.74
GRIPAP1 | 1.44
